Out of some 360,000 compounds screened, about 7,500 (2.1%) were called active. The shares of active, inactive and inconclusive entries below differ from those in the screen. Calls come from the whole dose curve; as a rule, active = well fitted inhibition curve with a large enough effect; inconclusive = small, poorly fitted or top-dose-only effect, or effect the other way; inactive = flat fitted curve, though single readings scatter. Potencies of inconclusive entries are doubtful fits and often do not repeat. A structure can be active in one record and inactive in another.
Experiment: Nrf2 qHTS screen for inhibitors; note: nearly all actives have a fitted effect of over 60% in size
Settings: A549 ARE-Fluc reporter, luciferase luminescence, 18-24 h; activity change, negative = inhibition: at 46 µM (top of the series)
Method in brief: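 In this cell-based qHTS, ARE-driven firefly luciferase in A549 cells reports Nrf2 activity; the luminescent signal after BugLite lysis is the measured value, with a prior CellTiter-Fluor read for cell health.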
% is set by controls: 0 for no effect and ±100 for the full control effect; potency is the fitted concentration of half-maximal effect.

Compound	Potency	activity change, negative = inhibition
Cc1cc([N+](=O)[O-])ccc1-c1ccc(/C=N/NC(=O)c2ccc(Br)o2)o1	inconclusive: 29.1 µM [falling, single point]	–
O=c1[nH]c(CN2CCN(c3ccc(O)cc3)CC2)nc2scc(-c3ccc(Cl)cc3)c12	inconclusive: 29.1 µM [falling, single point]	–
CC1(C)N=C(SCC(=O)Nc2ccc(Cl)cc2Cl)C(c2ccccc2)=N1	inconclusive: 29.1 µM [falling, single point]	–
Cc1ccc(Cl)cc1-n1nnc(-c2nc(-c3ccc4c(c3)OCO4)no2)c1C	inconclusive: 25.9 µM [falling, single point]	–
CCOc1ccc2nc(NC(=O)c3cccc(-c4cc5ccccc5oc4=O)c3)sc2c1	inconclusive: 32.6 µM [falling, single point]	–
COc1ccc(Nc2nn3c(=O)c4cc5c(cc4nc3s2)OCO5)c(OC)c1	inconclusive: 3.66 µM [activator, single point]	–
O=C1c2cccc3cccc(c23)C(=O)N1CC1CCN(S(=O)(=O)c2ccccc2)CC1	–	inactive: -10.6%
CCN1C(=O)[C@@H]2[C@@H](c3ccc(-c4ccc(F)cc4)c(OC)c3)N3CCCC[C@@]3(C(=O)OC)[C@@H]2C1=O	inconclusive: 23.1 µM [falling, partial curve, poor fit]	–
CCn1c(=O)c2sccc2n2c(CCCC(=O)N3CCN(c4ccccn4)CC3)nnc12	inconclusive: 20.6 µM [falling, partial curve, poor fit]	–
c1cn2cc(-c3ccc4c(c3)OCO4)nc2s1	inconclusive: 1.3 µM [activator, partial curve]	–
Cc1ccc(N2CC(C(=O)Nc3nnc(SCC(N)=O)s3)CC2=O)cc1C (stereo not drawn)	inconclusive: 4.61 µM [falling, partial curve, poor fit]	–
CC1CCCCC1NC(=O)/C(C#N)=C/C=C/c1ccccc1[N+](=O)[O-] (stereo not drawn)	active: 16.4 µM	–
CCOC(=O)C1OC2(CCCC2)OC1C(=O)OCC (stereo not drawn)	inconclusive: 13 µM [activator, partial curve]	–
O=C(NCCOc1ccccc1)c1ccc2n[nH]nc2c1	inconclusive: 2.91 µM [activator, partial curve, poor fit]	–
Cc1cccc(N2CCN(C(=O)Cn3c(-c4cccs4)cc4ccccc43)CC2)c1C	–	inactive: -27.3%
Cc1ccc2c(CC(=O)Nc3ccc(S(=O)(=O)N4CCCCC4)cc3)coc2c1C	inconclusive: 29.1 µM [falling, single point]	–
Cc1cc(C(=O)Nc2cccc(NC(=O)c3ccco3)c2)ccc1[N+](=O)[O-]	inconclusive: 32.6 µM [falling, single point]	–
COc1ccc(C(=O)n2cc(C(C)=O)c3ccccc32)cc1	–	inactive: 3.44%
Cc1nn(-c2nc3ccccc3s2)c(N)c1Sc1ccc(F)cc1	inconclusive: 7.31 µM [activator, partial curve]	–
Cn1ncc(Cl)c1C(=O)N1CCN(c2cccc(Cl)c2)CC1	inconclusive: 16.4 µM [falling, partial curve, poor fit]	–
Fc1ccccc1NC(=S)Nc1cccc2cnccc12	inconclusive: 14.6 µM [falling, partial curve, poor fit]	–

Record cards, as listed above:
Cc1cc(C(=O)Nc2cccc(NC(=O)c3ccco3)c2)ccc1[N+](=O)[O-] in the list: Potency: inconclusive: 32.6 µM [falling, single point]
CC1CCCCC1NC(=O)/C(C#N)=C/C=C/c1ccccc1[N+](=O)[O-] (stereo not drawn) in the list: Potency: active: 16.4 µM
COc1ccc(C(=O)n2cc(C(C)=O)c3ccccc32)cc1 in the list: activity change, negative = inhibition: inactive: 3.44%
c1cn2cc(-c3ccc4c(c3)OCO4)nc2s1 in the list: Potency: inconclusive: 1.3 µM [activator, partial curve]

Additional compounds

Compound	Potency	activity change, negative = inhibition
N#Cc1cc(C(=O)c2cc(Br)ccc2O)cn(C2CCCCC2)c1=O	inconclusive: 29.1 µM [falling, single point]	–
CC(C)CN(C(=O)COC(=O)c1c2c(nc3ccccc13)CCC2)c1c(N)n(Cc2ccccc2)c(=O)[nH]c1=O	inconclusive: 20.6 µM [falling, partial curve, poor fit]	–
CCN(CC)S(=O)(=O)c1ccc2[nH]cc(C(=O)NCCC3=CCCCC3)c(=O)c2c1	inconclusive: 16.4 µM [falling, partial curve, poor fit]	–
COc1cccc(NC(=O)CN(C)C(=O)c2cccc(S(=O)(=O)N3CCN(c4ccc(F)cc4)CC3)c2)c1	inconclusive: 18.4 µM [falling, single point]	–
O=C(NC1CCCCCCC1)c1ccc(Br)cc1	inconclusive: 0.231 µM [activator, full curve, poor fit]	–
COc1ccc(-c2nc(CS(=O)CC(=O)NCCc3ccc(Cl)cc3)c(C)o2)cc1OC (stereo not drawn)	–	inactive: 4.32%
CCc1ccc(-n2nc(CO)c(C(=O)NC)n2)cc1	–	inactive: 3.1%
CC(C)CCNC(=O)C1CCN(C(=O)c2cc3sccc3n2Cc2ccc(Cl)cc2)CC1	inconclusive: 20.6 µM [falling, single point]	–
COc1ccc(N(C)C(=O)CCC(=O)Nc2ccc3nc(N4CCOCC4)cc(C)c3c2)c(OC)c1	inconclusive: 29.1 µM [falling, partial curve, poor fit]	–
CC1CCCCN1C(=O)CSc1nnc2c(n1)[nH]c1ccc(F)cc12 (stereo not drawn)	inconclusive: 4.11 µM [falling, partial curve]	–
Cc1ccc(CS(=O)(=O)c2ncc(Cl)c(C(=O)Nc3nnc(C(C)C)s3)n2)cc1	active: 20.6 µM	–
N#C/C(=N\Nc1ccc(S(=O)(=O)N2CCCCCC2)cc1)C(N)=S	inconclusive: 9.2 µM [falling, partial curve, poor fit]	–
O=C(Nc1cccc2cccnc12)c1cccc(Cl)c1	inconclusive: 25.9 µM [activator, single point]	–
CC(=O)NC1=C(C#N)C(c2ccccc2)c2c(ccc3ccccc23)O1 (stereo not drawn)	inconclusive: 18.4 µM [falling, partial curve, poor fit]	–
CN(C)c1nc(N)nc(CSc2ncc(Cl)cc2Cl)n1	inconclusive: 1.46 µM [falling, full curve, poor fit]	–
N#CCSc1nc2ccc(N3CCCCC3)cc2c(=O)n1Cc1ccccc1	inconclusive: 0.231 µM [falling, full curve, poor fit]	–
O=C(COC(=O)/C=C/c1ccccc1)Nc1cccnc1Cl	–	inactive: 5.05%
Fc1ccc(CSc2ccc3nnc(-c4cccnc4)n3n2)cc1	active: 9.2 µM	–
COc1ccc(CCNC(=S)NC(=O)c2ccccc2)cc1C	inconclusive: 29.1 µM [falling, single point]	–
Cc1ccc2c(Cl)cc(Cl)c(OCC(=O)Nc3cccc(S(=O)(=O)N(C)C)c3)c2n1	–	inactive: 11.2%
COc1ccc(CNC(=O)COC(=O)Cc2ccc(Br)cc2)cc1	–	inactive: 3.24%

Shown field by field: part of the list above.
Cc1ccc2c(Cl)cc(Cl)c(OCC(=O)Nc3cccc(S(=O)(=O)N(C)C)c3)c2n1
  activity change, negative = inhibition: inactive: 11.2%
COc1ccc(CNC(=O)COC(=O)Cc2ccc(Br)cc2)cc1
  activity change, negative = inhibition: inactive: 3.24%

Later entries.

Compound	Potency	activity change, negative = inhibition
CCOC(=O)c1ccc(NC(=O)CC(=O)Nc2ccc3nc4n(c(=O)c3c2)CCCCC4)cc1	inconclusive: 2.59 µM [falling, full curve]	–
Cc1ccc(-c2csc(NC(=O)c3ccco3)n2)cc1C	inconclusive: 0.731 µM [activator, partial curve]	–
Cc1ccc2nc(SCC(=O)Nc3ccc(Cl)cc3)nc(=O)n2c1	inconclusive: 29.1 µM [falling, single point]	–
Cc1cccc(NC(=S)Nc2cccc(C)n2)n1	inconclusive: 20.6 µM [activator, single point]	–
COC(=O)c1ccc(/C=C/C(=O)c2ccc(OC)c(OC)c2)cc1	inconclusive: 23.1 µM [falling, single point]	–
CCOc1cc(/C=C(/C#N)C(=O)Nc2ccc(O)cc2)cc(Br)c1O	inconclusive: 29.1 µM [activator, single point]	–
O=C(CNC(=O)c1ccccc1F)c1ccccc1	inconclusive: 16.4 µM [activator, partial curve, poor fit]	–
O=C(Nc1ncccn1)c1ccc([N+](=O)[O-])o1	inconclusive: 20.6 µM [activator, single point]	–
Cc1cc(-c2ccccc2)nc2oc(C(=O)NN)c(N)c12	inconclusive: 18.4 µM [falling, single point]	–
COCCCNC(=O)c1cnc2sc(N3CCCCC3)nn2c1=O	inconclusive: 25.9 µM [activator, single point]	–
Cc1ccc2nc(-c3ccc(NC(=O)COc4ccc(Br)cc4Br)cc3)sc2c1	inconclusive: 1.84 µM [activator, partial curve, poor fit]	–
CSc1ccc(CCNC(=O)CCCn2c(=O)c3cccn3c3ccccc32)cc1	inconclusive: 29.1 µM [falling, single point]	–
CCc1cc(=O)oc2cc(C)cc(OC(C)C(=O)NCc3ccccn3)c12 (stereo not drawn)	inconclusive: 23.1 µM [activator, partial curve, poor fit]	–
COCc1ccc(C(=O)NC2CCCc3c2cnn3-c2ccc(C)c(C)c2)o1 (stereo not drawn)	active: 14.6 µM	–
CSc1ncc2c(n1)-c1ccccc1N(Cc1ccccc1)S2(=O)=O	inconclusive: 23.1 µM [falling, single point]	–
O=C(Nc1ccccc1)N1CCN(c2nc3ccccc3s2)CC1	inconclusive: 4.61 µM [falling, full curve, poor fit]	–
Cc1ccc2[nH]c3c(=O)n(CC(=O)Nc4ccc(Br)cc4C)ncc3c2c1	inconclusive: 23.1 µM [activator, single point]	–
O=C1c2[nH]nc(-c3ccc(F)cc3)c2C(c2ccccc2F)N1c1ccccc1 (stereo not drawn)	inconclusive: 23.1 µM [falling, single point]	–
COc1cccc(NC(=S)N2CCN(c3ccc([N+](=O)[O-])cc3)CC2)c1	inconclusive: 23.1 µM [falling, single point]	–
C=CCC[C@@H](Cc1ccc(F)cc1)C(=O)OC[C@@H]1CCCN1C(=O)[C@@H](CC=C)CC(=O)N(CCO)Cc1ccccc1	inconclusive: 20.6 µM [falling, single point]	–
Cc1ccnc(NC(=O)CC(NC(=O)c2ccccc2Cl)c2ccccc2)c1 (stereo not drawn)	inconclusive: 14.6 µM [activator, partial curve]	–

Source: PubChem BioAssay AID504444 (National Center for Advancing Translational Sciences (NCATS), 2011)
